Data source: PubChem BioAssay AID1259297 (Sanger Institute, 2017)

Test: 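siRNA screen across the kinome seeking drug partners in cells of colorectal cancer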 (primary screen)
System: human RCM1 colorectal cancer cell line
Reagent: siRNA pool against human genes
Treatment: separate arms: DMSO vehicle, or one anchor drug at a mild dose: BYL719 1 µM, cetuximab 5 µg/ml, trametinib 10 nM
Measurement: 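Replicate-mean well viability as a share of non-targeting pool control, a robust z-score without drug, and synergy scores for BYL719, cetuximab and trametinib arms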
Reading the numbers: viability z-score, knock-down alone: higher = more viable cells than non-targeting controls
Rule for the call: 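Called essential if knock-down without drug gives a viability robust z-score under -3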
Calls: active = essential when knocked down alone; inactive = no clear loss of viability alone
The deposit covers 794 reagents; below is an unselected part. 13 of all reagents (1.6%) were called active. 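Calls reflect knock-down without drug only; drug synergy is judged separately, with scores above 0.15 counted as synergy.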 Unmarked entries are inactive. Further read-outs or replicates are left out here. No sequences are given here. The record does not give: the amount of reagent, the time to read-out.

What is on record for KIT [SID152151885]?
viability z-score, knock-down alone: 0.9

For SRP72 [SID135623816], what does the deposit list?
viability z-score, knock-down alone: -1.61

For GALK2 [SID56479099], what does the deposit list?
viability z-score, knock-down alone: 0.468

What is on record for EIF2AK4 [SID152146907]?
viability z-score, knock-down alone: 0.612

For NEK10 [SID56478763], what was measured?
viability z-score, knock-down alone: -0.358

For ATP23 [SID152151481], what does the deposit list?
viability z-score, knock-down alone: 0.367

With MSR1 [SID152150198], what does the deposit list?
viability z-score, knock-down alone: 0.9

With TP53RK [SID135620611], what was measured?
viability z-score, knock-down alone: 0.171

What is on record for ATRX [SID152156576]?
viability z-score, knock-down alone: 0.668

For ITK [SID135620623], what was measured?
viability z-score, knock-down alone: 0.9

For CAMK2G [SID56478805], how do the results read?
viability z-score, knock-down alone: -1.4

How did the screen score TAB1 [SID135620883]?
viability z-score, knock-down alone: 0.9

How did the screen score RPS6KC1 [SID135620976]?
viability z-score, knock-down alone: 0.9

Which result is listed for ULK4 [SID152148607]?
viability z-score, knock-down alone: -1.03

With PKDCC [SID152147854], how do the results read?
viability z-score, knock-down alone: 0.327

For ULK1 [SID56478976], what was measured?
viability z-score, knock-down alone: 0.9

For GSK3B [SID56478468], how do the results read?
viability z-score, knock-down alone: 0.866

Which result is listed for PFKFB4 [SID152152940]?
viability z-score, knock-down alone: -0.0997

How did the screen score JAK3 [SID56478525]?
viability z-score, knock-down alone: 0.71

What is on record for MARK2 [SID152148068]?
viability z-score, knock-down alone: 0.9

What did the screen give for IRAK4 [SID134309837]?
viability z-score, knock-down alone: -1.07

With ELP1 [SID56479224], how do the results read?
viability z-score, knock-down alone: 0.9

With STK17B [SID56478762], what does the deposit list?
viability z-score, knock-down alone: 0.864

For DYRK1B [SID56478878], what was measured?
viability z-score, knock-down alone: 0.137

Which result is listed for KALRN [SID134314670]?
viability z-score, knock-down alone: -0.632

For DTYMK [SID135621237], what does the deposit list?
viability z-score, knock-down alone: 0.9

How did the screen score SGK1 [SID152156682]?
viability z-score, knock-down alone: -0.895

Which result is listed for CDC73 [SID134319235]?
viability z-score, knock-down alone: -1.52

Entries above whose target name starts with D or d:
DYRK1B [SID56478878] | viability z-score, knock-down alone = 0.137
DTYMK [SID135621237] | viability z-score, knock-down alone = 0.9
